Data: PubChem BioAssay AID540335 (Broad Institute, 2011)
Screen size: about 1,300 compounds; about 270 (21%) were called active.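 Rule for the calls: active = dose-dependent rise or fall in viability, either side of zero, with half-maximal concentration at or below a set limit; inconclusive = flat curve at 30 to 70% viability loss, or poor fit; inactive = flat within 30% either way, or potency beyond limit.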 Some of the results follow. Measured potencies and affinities stand elsewhere.

Assay: A375 melanoma cell viability reduction, dose response, counter-screen for MITF modulator project, cherry-pick samples, set 2 (AID 540335);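 note: A375 human melanoma cells which do not depend on MITF; 0% = median of neutral control wells and 100% = double that signal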
Conditions: CellTiter-Glo ATP luminescence, 24 h; at 35 µM (top of the series)

Structure (SMILES)	activity change, negative = decreased viability
Cn1nnnc1Sc1ncnc2scc(-c3ccsc3)c12	inactive: -1.27%
Cc1c(OCC(=O)NC2CC(C)(C)NC(C)(C)C2)ccc2c1oc(=O)c1ccccc12	inactive: -14%
Cc1ccc(-c2c[n+](Cc3cccc(Cl)c3)c3n2CCC3)cc1	inactive: -7.36%
O=C(NC1=C(Nc2ccc(Cl)cc2)C(=O)c2ccccc2C1=O)c1ccccc1	inactive: -34.3%
O=C(O)c1cccc(COc2ccccc2Cl)c1	inactive: -0.09%
O=C(C[n+]1cc(-c2ccc(F)cc2)n2c1CCC2)c1cccs1	inactive: -0.701%
O=C(COC(=O)C1=COCCO1)Nc1c(F)cccc1F	inactive: 2.23%
CCSc1ccccc1C(=O)n1nnc2ccccc21	inactive: -32.2%
Cc1ccc(-n2[nH]c(=O)c(-c3ccccn3)c2C)cc1	inactive: 0.923%
N/C(=N\OC(=O)c1ccc(Cl)cc1Cl)c1ccncc1	inactive: 5.82%
CC(C)C(=O)N1CCN(c2ccc(NC(=O)c3ccc([N+](=O)[O-])o3)cc2Cl)CC1	inactive: 29.3%
CC(=O)c1cccc(NC(=O)/C=C/c2ccc([N+](=O)[O-])s2)c1	inactive: 5.26%
Cn1c(/C=C/c2ccc(Cl)cc2)nc2ccccc2c1=O	inactive: -3.66%
Cc1ccccc1OCc1nc2c3cnn(C)c3ncn2n1	inactive: -3.15%
COc1ccccc1N1C(=O)N(C(C)=O)C2C1Nc1ccccc1N2C (stereo unspecified)	inactive: 10.7%
N#C/C(C(=O)c1ccccc1)=C1/CCCCCN1	inactive: 9.85%
CN(C)CCNC(=O)COc1ccc(C23CC4CC(CC(C4)C2)C3)cc1	inactive: -10.8%
CCCC(=O)NC(c1ccc(OC)c(OC)c1)c1cc(Cl)c2cccnc2c1O (stereo unspecified)	inactive: -33.1%
CCN(CC)S(=O)(=O)c1ccc(N2CCCC2)c(NC(=O)c2ccc([N+](=O)[O-])o2)c1	inactive: -10.5%
O=C(CCl)Nc1cccc(S(=O)(=O)NC2=NCCCCC2)c1	inactive: 1.18%
O=[N+]([O-])/C=C\c1ccc(N2CCCC2)c(F)c1	inactive: -0.297%

Structural class, the compounds so far containing a halogen (11)
Structure (SMILES)	activity change, negative = decreased viability
Cc1ccc(-c2c[n+](Cc3cccc(Cl)c3)c3n2CCC3)cc1	inactive: -7.36%
O=C(NC1=C(Nc2ccc(Cl)cc2)C(=O)c2ccccc2C1=O)c1ccccc1	inactive: -34.3%
O=C(O)c1cccc(COc2ccccc2Cl)c1	inactive: -0.09%
O=C(C[n+]1cc(-c2ccc(F)cc2)n2c1CCC2)c1cccs1	inactive: -0.701%
O=C(COC(=O)C1=COCCO1)Nc1c(F)cccc1F	inactive: 2.23%
N/C(=N\OC(=O)c1ccc(Cl)cc1Cl)c1ccncc1	inactive: 5.82%
CC(C)C(=O)N1CCN(c2ccc(NC(=O)c3ccc([N+](=O)[O-])o3)cc2Cl)CC1	inactive: 29.3%
Cn1c(/C=C/c2ccc(Cl)cc2)nc2ccccc2c1=O	inactive: -3.66%
CCCC(=O)NC(c1ccc(OC)c(OC)c1)c1cc(Cl)c2cccnc2c1O (stereo unspecified)	inactive: -33.1%
O=C(CCl)Nc1cccc(S(=O)(=O)NC2=NCCCCC2)c1	inactive: 1.18%
O=[N+]([O-])/C=C\c1ccc(N2CCCC2)c(F)c1	inactive: -0.297%

Nothing new here: entries from further up.
Structure (SMILES)	activity change, negative = decreased viability
CN(C)CCNC(=O)COc1ccc(C23CC4CC(CC(C4)C2)C3)cc1	inactive: -10.8%
CCCC(=O)NC(c1ccc(OC)c(OC)c1)c1cc(Cl)c2cccnc2c1O (stereo unspecified)	inactive: -33.1%

(list continues)

Structure (SMILES)	activity change, negative = decreased viability
O=C(N/N=C/c1ccc([N+](=O)[O-])o1)c1ccc(O)cc1	inactive: -17.7%
CCNC(=O)CC1C(=O)N(c2ccc(F)cc2)C(=O)N1CCc1ccc(OC)cc1 (stereo unspecified)	inactive: 1.95%
CN(C)c1ccc(/C=C/c2cccc[n+]2[O-])cc1	inactive: 7.1%
CC(=O)N(C)C1=C(N2CCOCC2)C(=O)c2ccccc2C1=O	inactive: -38%
O=C(CSc1nnnn1-c1ccc(O)cc1)Nc1cccc(S(=O)(=O)N2CCCC2)c1	inactive: 3.61%
CC1CCN(CC2C(=O)O[C@@H]3C[C@@]4(C)CCC[C@H](C)C4=C[C@H]23)CC(C)(C)C1 (stereo partly specified)	inactive: -37.1%
O=C(CCl)N1CCN(S(=O)(=O)c2ccc3c(c2)CCC3)CC1	inactive: -14%
OCc1ccc(N=Nc2ccccc2)cc1	inactive: 8.78%
Cc1ccc(NC(=O)/C=C/c2ccc([N+](=O)[O-])s2)c(C)c1	inactive: 21.2%
COc1cccc(-c2nnc3sc(-c4cccs4)nn23)c1	inactive: -4.18%
Nc1c(N(CCC2=CCCCC2)C(=O)COc2ccc([N+](=O)[O-])cc2)c(=O)[nH]c(=O)n1Cc1ccccc1	inactive: -29%
CC(C)c1ccc(C(=O)Nc2cccnc2)cc1	inactive: 7.53%
Fc1ccccc1-c1nc(-c2ccncc2)no1	inactive: 10.2%
Cc1ccc(NC(=O)CCC(=O)N/N=C/c2ccc([N+](=O)[O-])o2)cc1C	inactive: -3.7%
CN1CCN(c2ccccc2NC(=O)c2ccc([N+](=O)[O-])o2)CC1	inactive: -26.5%
CN(C)c1ccc(/C=C2\SC(=O)N(CCc3nnc(N)s3)C2=O)cc1	inactive: 10.5%
Cc1cc(C(=O)CSc2nnc3ccccn23)c(C)n1-c1ccccc1	inactive: -0.919%
O=C(CCCN1C(=O)S/C(=C\c2ccccc2)C1=O)NNC(=O)c1ccccc1O	inactive: -5.72%
O=C(N/N=C\c1ccc([N+](=O)[O-])s1)c1cncc(Br)c1	inactive: -26.1%
COc1ccccc1NS(=O)(=O)c1cccc(C(=O)N/N=C/c2ccc([N+](=O)[O-])o2)c1	inactive: -30.3%
COC1=C(c2ccccc2)C(=O)c2ccccc2C1=O	inactive: -38.7%

Structure (SMILES)	activity change, negative = decreased viability
CCOC(=O)c1c(C)[nH]c(C)c1C(=O)COC(=O)c1ccc([N+](=O)[O-])s1	inactive: -21.8%
CN(C)c1ccc(CNc2ccccn2)cc1	inactive: 4.92%
CCN=c1scc(-c2ccco2)n1/N=C/c1ccc(O)cc1	inactive: -2.35%
COc1cccc(NC(=O)c2cc3ccccc3cc2OC)c1	inactive: 5.97%
O=C(NC1CCCCC1)c1cc2cc(Br)ccc2o1	inactive: 4.15%
O=S(=O)(CC(CN1CCCCC1)N1CCCCC1)c1ccc2ccccc2c1 (stereo unspecified)	inactive: -11.5%
O=C(N/N=C/c1ccccn1)c1cc([N+](=O)[O-])cc([N+](=O)[O-])c1	inactive: -6.72%
COc1ccc(N/N=C/c2c(C(=O)O)ccc3ccccc23)cc1	inactive: -34.8%
COc1ccc(NC(=O)c2cc(F)cc(F)c2)cc1Cl	inactive: -3.4%
CCc1ccc(-c2cc(C(=O)Nn3cnnc3)c3ccccc3n2)cc1	inactive: -19.7%
O=C(Cc1cccs1)NCc1ccc(Cl)cc1Cl	inactive: 0.365%
Nc1ncnc(Sc2ncccn2)c1[N+](=O)[O-]	inactive: -23.9%
O=C(CC(=O)c1ccccc1)Nc1ccccc1	inactive: 13.8%
O=C(Nc1ccc(Cl)cc1)Nc1cccc(C(=O)O)c1	inactive: 8.31%
BrC(=C\c1ccccc1)/C=N/n1cnnc1	inactive: -34.2%
O=C(Nc1nc2ccccc2s1)c1ccccc1[N+](=O)[O-]	inactive: -6.68%
O=C(Cn1ncc(Cl)c(Cl)c1=O)c1ccc(Cl)cc1	inactive: 84.6%
Cc1ccccc1-c1nc(CN2CCC(C(=O)NCCCN3CCCC(C)C3)CC2)c(C)o1 (stereo unspecified)	inactive: -2.83%
Cc1cc2oc(=O)cc(C)c2cc1NC(=O)CCC(=O)O	inactive: 8.56%
